From US10865191B2, “Heterocyclic compounds useful as modulators of TNF alpha” (BRISTOL-MYERS SQUIBB COMPANY, priority 2015, dated 2020)
Read-outs that look alike come from different tables or passages of the source. Some results were stated once for a whole list of compounds, not compound by compound.

By UniProt entry, the sequences of proteins in these tests, tags left out. Residues count along the entry.
UniProt P01375, 77-233 limits assumed: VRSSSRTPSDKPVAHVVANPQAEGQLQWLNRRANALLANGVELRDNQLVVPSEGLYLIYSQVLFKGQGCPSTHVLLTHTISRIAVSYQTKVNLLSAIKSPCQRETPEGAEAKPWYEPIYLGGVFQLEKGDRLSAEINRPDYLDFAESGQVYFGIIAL

Target: TNFα (Homo sapiens, UniProt P01375)
Assay: TNF induced HEK-Blue assay (NF-kB-driven secreted alkaline phosphatase reporter)
Format: cell-based
Description: TNF or CD40L-Induced HEK-Blue Assay
Test compounds serially diluted in DMSO were plated in an assay plate (LABCYTE, Cat. # LP-0200) at final concentrations ranging from 0.004 μM to 25 μM. TNFα (final concentration 0.5 ng/mL) or CD40L (final concentration 30 ng/mL) in assay buffer [DMEM, 4.5 g/l glucose (Gibco, Cat. 21063-029), 10% FBS (Sigma, F4135), 1% Penicillin-Streptomycin (Gibco, Cat. 15140-122), 1% Anti-Anti (Gibco, Cat. 15240-112) and 2 mM L-glutamine (Gibco, Cat. 25030-081)] was then added to the assay plate. After a 30 minute pre-incubation at 37° C. and 5% CO2, HEK-Blue™-CD40L cells (INVIVOGEN, Cat. Code hkb-cd40) containing a NF-kB-driven secreted alkaline phosphatase reporter gene were seeded into the assay plate at a density of 20,000 cells per well. This plate was then incubated for 18 h at 37° C. and 5% CO2. Secreted alkaline phosphatase expression was measured using QUANTI-Blue™ (INVIVOGEN, Cat. Code rep-qb1) according to manufacturer's specifications and the assay plate was read on a PerkinElmer Envision at 620 nm.
Inhibition data for the test compound over a range of concentrations was plotted as percentage inhibition of the test compound (100%=maximum inhibition). IC50 values were determined after correcting for background [(sample read-mean of low control)/(mean of high control-mean of low control)] where by the low control is DMSO without stimulation and high control is DMSO with stimulation. The IC50 is defined as the concentration of test compound which produces 50% inhibition and was quantified using the 4 parameter logistic equation to fit the data.

[1] = TNFα 0.5 ng/mL, HEK-Blue-CD40L cells, 18 h; read-out: IC50 values measured in the TNF induced HEK-Blue assay
[2] = read-out: IC50 values measured in the TNF induced HEK-Blue assay; TNFα 0.5 ng/mL, HEK-Blue-CD40L cells, 18 h

IC50 [1] [µM] | IC50 [2] [µM] | SMILES
≤ 25 | – | CCOC(=O)c1nc2ccc(-c3cnc(C(C)(C)O)nc3)cc2c(N[C@H](C)c2cc(C#N)ccc2F)c1Cl [Example 384, ethyl (R)-3-chloro-4-((1-(5-cyano-2-fluorophenyl)ethyl)amino)-6-(2-(2-hydroxypropan-2-yl)pyrimidin-5-yl)quinoline-2-carboxylate]
≤ 25 | – | CC(C)(O)c1ncc(-c2cc3c(NC4(c5ccccc5F)CCC4)c(Cl)cnc3cc2F)cn1 [Example 609, 2-(5-(3-chloro-7-fluoro-4-((1-(2-fluorophenyl)cyclobutyl)amino)quinolin-6-yl)pyrimidin-2-yl)propan-2-ol]
≤ 25 | – | CC(Nc1c(Cl)cnc2cc(F)c(-c3ccc(C(O)C4CC4)cc3)cc12)c1ccccc1F (centres unmarked) [Example 263, (4-(3-chloro-7-fluoro-4-((1-(2-fluorophenyl)ethyl)amino)quinolin-6-yl)phenyl)(cyclopropyl)methanol]
≤ 25 | – | CC(C)(O)c1ncc(-c2nc3c(N[C@H](c4cc(C(O)CO)ccc4F)C(F)F)c(Cl)cnc3cc2F)cn1 (stereo partly drawn) [Example 488, 1-(3-((R)-1-((3-chloro-7-fluoro-6-(2-(2-hydroxypropan-2-yl)pyrimidin-5-yl)-1,5-naphthyridin-4-yl)amino)-2,2-difluoroethyl)-4-fluorophenyl)ethane-1,2-diol]
≤ 25 | – | C[C@@H](Nc1c(Cl)cnc2ccc(-c3cnc(C4(O)CCCC4)nc3)cc12)c1ccccc1F [Example 120, (R)-1-(5-(3-chloro-4-((1-(2-fluorophenyl)ethyl)amino)quinolin-6-yl)pyrimidin-2-yl)cyclopentan-1-ol]
– | ≤ 25 | CC(Nc1c(Cl)cnc2ccc(-c3cnc(C(C)(C)O)nc3)cc12)c1cccc(F)c1 (racemic) [Example 155, 2-(5-(3-chloro-4-((1-(3-fluorophenyl)ethyl)amino)quinolin-6-yl)pyrimidin-2-yl)propan-2-ol]
≤ 25 | – | Cc1cncc(-c2ccc(F)c([C@@H](C)Nc3c(Cl)cnc4ccccc34)c2)c1 [Example 507, (R)-3-chloro-N-(1-(2-fluoro-5-(5-methylpyridin-3-yl)phenyl)ethyl)quinolin-4-amine]
≤ 25 | – | C[C@@H](Nc1c(Cl)cnc2cc(F)c(-c3cnc(C(C)(C)O)nc3)nc12)c1cc(C#N)ccc1F [Example 590, (R)-3-(1-((3-chloro-7-fluoro-6-(2-(2-hydroxypropan-2-yl)pyrimidin-5-yl)-1,5-naphthyridin-4-yl)amino)ethyl)-4-fluorobenzonitrile]
≤ 25 | – | C[C@@H](Nc1c(Cl)cnc2ccc(-c3cnc(C(C)(C)O)nc3)cc12)c1cc(Cl)ncc1F [Example 53, (R)-2-(5-(3-chloro-4-((1-(2-chloro-5-fluoropyridin-4-yl)ethyl)amino)quinolin-6-yl)pyrimidin-2-yl)propan-2-ol]
≤ 25 | – | CC(CC(O)(c1ccccc1)c1ccccc1)Nc1c(Cl)cnc2ccc(-c3cnc(C(C)(C)O)nc3)cc12 (racemic) [Example 143, 3-((3-chloro-6-(2-(2-hydroxypropan-2-yl)pyrimidin-5-yl)quinolin-4-yl)amino)-1,1-diphenylbutan-1-ol]
≤ 25 | – | Cc1nc2ccc(-c3cnc(C(C)(C)O)nc3)cc2c(N[C@H](C)c2ccccc2F)c1Cl [Example 441, (R)-2-(5-(3-chloro-4-((1-(2-fluorophenyl)ethyl)amino)-2-methylquinolin-6-yl)pyrimidin-2-yl)propan-2-ol]
≤ 25 | – | CC(Nc1c(Cl)cnc2cc(F)c(-c3ccc(C(O)CN4CCOCC4)cc3)cc12)c1ccccc1F (centres unmarked) [Example 286, 1-(4-(3-chloro-7-fluoro-4-((1-(2-fluorophenyl)ethyl)amino)quinolin-6-yl)phenyl)-2-morpholinoethan-1-ol]
≤ 25 | – | Cc1nc2ccc(-c3cnc(C(C)(C)O)nc3)cc2c(N[C@H](C)c2cc(-c3cnn(C)c3)ccc2F)c1Cl [Example 344, (R)-2-(5-(3-chloro-4-((1-(2-fluoro-5-(1-methyl-1H-pyrazol-4-yl)phenyl)ethyl)amino)-2-methylquinolin-6-yl)pyrimidin-2-yl)propan-2-ol]
≤ 25 | – | CC(Nc1c(Cl)cnc2ccc(-c3ccc(C(C)(C)O)cc3)cc12)c1cncn1C (racemic) [Example 210, 2-(4-(3-chloro-4-((1-(1-methyl-1H-imidazol-5-yl)ethyl)amino)quinolin-6-yl)phenyl)propan-2-ol]
≤ 25 | – | CCNCc1ccc(-c2ccc3ncc(Cl)c(N[C@H](C)c4ccccc4F)c3c2)cc1 [Example 29, (R)-3-chloro-6-(4-((ethylamino)methyl)phenyl)-N-(1-(2-fluorophenyl)ethyl)quinolin-4-amine]
≤ 25 | – | Cc1ccc(C)c(Nc2c(Cl)c(C(=O)Nc3cccnc3)nc3ccc(-c4ccc(C(N)=O)nc4)cc23)c1 [Example 37, 6-(6-carbamoylpyridin-3-yl)-3-chloro-4-((2,5-dimethylphenyl)amino)-N-(pyridin-3-yl) quinoline-2-carboxamide]
≤ 25 | – | CC(Nc1c(Cl)cnc2cc(F)c(-c3cnc(C4(O)CCS(=O)(=O)CC4)nc3)cc12)c1ccccc1F (centres unmarked) [Example 289, 4-(5-(3-chloro-7-fluoro-4-((1-(2-fluorophenyl)ethyl)amino)quinolin-6-yl)pyrimidin-2-yl)-4-hydroxytetrahydro-2H-thiopyran 1,1-dioxide]
≤ 25 | – | COc1cc(-c2ccc(F)c([C@@H](C)Nc3c(Cl)cnc4ccccc34)c2)c(F)cn1 [Example 527, (R)-3-chloro-N-(1-(2-fluoro-5-(5-fluoro-2-methoxypyridin-4-yl)phenyl)ethyl)quinolin-4-amine]
≤ 25 | – | C[C@@H](Nc1c(Cl)cnc2ccc(-c3cnc(N4CCN(CC(=O)NS(C)(=O)=O)CC4)nc3)cc12)c1ccccc1F [Example 91, (R)-2-(4-(5-(3-chloro-4-((1-(2-fluorophenyl)ethyl)amino)quinolin-6-yl)pyrimidin-2-yl)piperazin-1-yl)-N-(methylsulfonyl)acetamide]
≤ 25 | – | O=C(O)CNCc1ccc(-c2ccc3ncc(Cl)c(N[C@@H](c4ccccc4F)C(F)F)c3c2)cc1 [Example 13, (S)-(4-(3-chloro-4-((2,2-difluoro-1-(2-fluorophenyl)ethyl)amino)quinolin-6-yl)benzyl)glycine]
– | ≤ 25 | C[C@@H](Nc1c(Cl)cnc2ccc(-c3ccc(C(C)(C)O)cc3)cc12)c1ccccc1F [Example 228, (R)-2-(4-(3-chloro-4-((1-(2-fluorophenyl)ethyl)amino)quinolin-6-yl)phenyl)propan-2-ol]
≤ 25 | – | Cc1ncc(-c2ccc(F)c([C@@H](C)Nc3c(Cl)c(C)nc4ccccc34)c2)cn1 [Example 534, (R)-3-chloro-N-(1-(2-fluoro-5-(2-methylpyrimidin-5-yl)phenyl)ethyl)-2-methylquinolin-4-amine]
≤ 25 | – | C[C@H](Nc1c(Cl)cnc2ccc(-c3cnc(C(C)(C)O)nc3)cc12)[C@H]1CCCN(C(=O)c2cccnc2)C1 [Example 566, ((S)-3-((S)-1-((3-chloro-6-(2-(2-hydroxypropan-2-yl)pyrimidin-5-yl)quinolin-4-yl)amino)ethyl)piperidin-1-yl)(pyridin-3-yl)methanone]
≤ 25 | – | CC(Nc1c(Cl)cnc2ccc(-c3cnc(C(C)(C)O)nc3)cc12)c1ccc(F)cc1F (racemic) [Example 163, 2-(5-(3-chloro-4-((1-(2,4-difluorophenyl)ethyl)amino)quinolin-6-yl)pyrimidin-2-yl)propan-2-ol]
≤ 25 | – | Cc1ccc(C)c(Nc2c(Cl)c(COc3cccnc3)nc3ccc(-c4ccc(C#N)nc4)cc23)c1 [Example 41, 5-(3-chloro-4-((2,5-dimethylphenyl)amino)-2-((pyridin-3-yloxy)methyl)quinolin-6-yl)picolinonitrile]
– | ≤ 25 | CC(Nc1c(Cl)cnc2c(F)cc(-c3cnc(C(C)(C)O)nc3)cc12)c1ccccc1F (racemic) [Example 247, 2-(5-(3-chloro-8-fluoro-4-((1-(2-fluorophenyl)ethyl)amino)quinolin-6-yl)pyrimidin-2-yl)propan-2-ol]
≤ 25 | – | C[C@@H](Nc1c(Cl)cnc2ccc(-c3cnc(C(C)(C)O)nc3)cc12)C1CCCCC1 [Example 58, (R)-2-(5-(3-chloro-4-((1-cyclohexylethyl)amino)quinolin-6-yl)pyrimidin-2-yl)propan-2-ol]
≤ 25 | – | C[C@@H](Nc1c(Cl)cnc2ccc(-c3cnc(C(C)(C)O)nc3)cc12)c1cc(C(O)CO)ccc1F (mixture of isomers) [Example 398, 1-(3-((R)-1-((3-chloro-6-(2-(2-hydroxypropan-2-yl)pyrimidin-5-yl)quinolin-4-yl)amino)ethyl)-4-fluorophenyl)ethane-1,2-diol]
≤ 25 | – | Cc1nc2cc(F)c(-c3cnc(C(C)(C)O)nc3)nc2c(N[C@@H](c2cc(C(O)CO)ccc2F)C(F)F)c1Cl (stereo partly drawn) [Example 491, 1-(3-((S)-1-((3-chloro-7-fluoro-6-(2-(2-hydroxypropan-2-yl)pyrimidin-5-yl)-2-methyl-1,5-naphthyridin-4-yl)amino)-2,2-difluoroethyl)-4-fluorophenyl)ethane-1,2-diol]
